Consider 8 sequences from PMC4327974.

No signal at the amounts used counts as a negative. Where a protein sequence is shown, tags need not be part of it. A weaker result is weaker than the reference pair of the same experiment.

This data set concerns T1, CrdR (Agrobacterium sp. ATCC31749).
T1 sequence (looked up): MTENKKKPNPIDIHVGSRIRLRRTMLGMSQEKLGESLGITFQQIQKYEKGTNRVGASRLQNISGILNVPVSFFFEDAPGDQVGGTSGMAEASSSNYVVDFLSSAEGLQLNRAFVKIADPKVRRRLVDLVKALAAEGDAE
Put plainly: EMSA. As to conditions: 4x EMSA buffer (15 mM HEPES, 100 mM NaCl, 1 mM EDTA, 5 mM MgCl2, 10% glycerol, 1 ug/mL poly dI-dC), 10 uL protein + 10 uL 0.5 uM DNA in water, room temperature 30 min, recombinant protein, residues 1-139, protein details: N-terminal 6xHis, probe letters rebuilt from the primers and the genome.

[1] abbreviates: 0.5 mg/mL CrdR, binds, smaller shift than crdP98.

Take “CATCGCCCTAACCTCGCAGTTGGTCGGCTGCGCGTCGGGTTCCGGGCGCGCATCTGAACATCATTTTTGAAAATGAAGAACTGCCCTGCGGGTATAGGAGTGAACCCGCAGGGCTCGCCCAATCCATGCGGGTGTCAGGATTGAGTTCGCGAAATCTTGGTCTGGGGAACGGGCCCGTTCGCGGCATGCCTTGTGTCATCCAGTTGACGGTTCGGCGCTGCAAGCTCCGGCAGCCGTCCCTGGCGTGGCTGTTCCATTCCCATATAGGCGAAGATCCTGTTCCGCGACGATTCAAGGAGCGCCATGGCTGCCTGCGTGACAGACGGAATCTCCTTCGCGGAGTTCTTCGCATATTGGAGGAGATCAGCGGACGCTTCGTGAACGTAGTTTCGCGTCCTGTCCAGCCATTCGTTTGGCAGGGTCACATTGACCCATGTGCCGACCGA (double strand) [crdSP]”: the binding result (0.25 mg/mL CrdR) was “no binding”.
With “CCATTTCAATACTGCGGGAGGAACGGTTTCTCAACAACAGAGGAGTTGATTTCATGCTGTTCCGCAATAAGCCTGACGCAAAATATAAAGGCGCATCCGTAAGATTAGCCTCCTATACTGTTCTCGGTGTGGTGGCGACGGTGTTTTCTTCTTCCGTGTTTCCGCCTGTATTCACCTCTCAAACGAGCCGTGCTCTGATCAATGCCCCCATTATTCCCTTGACGACGCCGATCAGCGGCGTTGTGAAAACATTGAACGACAGGGGTGGTGCCACCATCGAGAACGACAAGGTGGACAATACAACGCTGATCGGTCTGAAGGTTCAACTGGCGGCGCTCGACAATGAGATGCGCCAGAAGAACTCGATCGTTTCGGACTATGCCTCGCGGATCGACGACCTGAACAGGGATCTTTCCAGCCAGCAGGCGGCTTTGCTGCTGCGGACCGA (double strand) [crdP53]”, the binding result under setting [1] is recorded as “binds more weakly”.
“CATGCGGTCCTGACACTCGGAAAGGGTTGATATCTCGTTTCACTACTATTCGAAGAAATGAGTCGGCAATTCGACAGCGTCTAAACTTGTTTTACGACTGACGTATTCACTATGCAATTACAGGGGTTCCCGGTCAATTCTGGCGCCGAGCAAAACTCAAGGCGGGAAATACCGCAACGATCATCAAGATTGAAAAAATCAACCAGAAATACGTCCGATGTGTGTCGTAAGTAAATGCGTCATTAGACCCACCACTCAAAGTGGCGTCAACAATTCCCACCCGACCATAGTCCAGCCCGGCAATAATGCGGCCATAGGGGTCTGTGACGGCGGAAATTCCGGTATTGGCGCCGCGAATCACCGGCACGCCCGTCTCAACGGCGCGTACCCGTGCCTGCAGAAAATGCTGGTAGGGACCGGGTGTATCACCAAACCAGCCGTCATTCGTCACATTTAGGATCGCCGC (double strand) [crdRP]”: the binding result (0.25 mg/mL CrdR) was “no binding”.
As for “CCAGATTTCTCAAGGGTCCTCCATCACGGTTGACCGCGACAACGACAAGAACCCGGTCGTGGCGCTTCGCGAAATCGCCGACGAGACGCTGTCTCCCGATGATCTGAAGGAAGACCTCATCCACTCGCTGCAGAAGCATGTGGAAGTGGACGAGCCCGAGCCCGATCCGGTCACGCTCGCCGCCTCCGCTGCCGATGGCGAAGACGATGATCAGCCGGAAACGGTTACTTTCGACCAGATGTCGGAAGAAGAACTGCTGGCCGGTATCGAAGGCCTTGTGCCGCCGGAAAAAAATGACGACTATTGATCCGGTTTTATGATGCCTTTGGCAGGCGGTGGTTACCGTCTGTCAATAGTTGCCGTCATAATCTGATCCCTATTGATGCAGCATTGTGCGCCGACCCCAAGGTTGGCGCGCTTTCTTTTTGTGGAATATCGCATGATG (double strand) [relAP]”, the binding result (0.25 mg/mL CrdR) is “no binding”.
For “TTAATGCAATTTTTACTATGTTGCGGCGCACAAGAACTTCATTCACCATTTCAATACTGCGGGAGGAACGGTTTCTCAACAACAGAGGAGTTGATTTCATGCTGTTCCGCAATAAGCCTGACGCAAAATATAAAGGCGCATCCGTAAGATTAGCCTCCTATACTGTTCTCGGTGTGGTGGCGACGGTGTTTTCTTCTTCCGTGTTTCCGCCTGTATTCACCTCTCAAACGAGCCGTGCTCTGATCAATGCCCCCATTATTCCCTTGACGACGCCGATCAGCGGCGTTGTGAAAACATTGAACGACAGGGGTGGTGCCACCATCGAGAACGACAAGGTGGACAATACAACGCTGATCGGTCTGAAGGTTCAACTGGCGGCGCTCGACAATGAGATGCGCCAGAAGAACTCGATCGTTTCGGACTATGCCTCGCGGATCGACGACCTGAACAGGGATCTTTCCAGCCAGCAGGCGGCTTTGCTGCTGCGGACCGA (double strand) [crdP98]”, the binding result (0.25 and 0.5 mg/mL CrdR, greatest shift of 98/53/13) was “binds”.
With “TCACCAACACCAACTCTGGATTGACGGAGATTGTCGGCAGTCCAGGCACGAAGGCCAAGGTTCCCCCGCCTGCGAGAAGCGCCACGGAAGGGGGCAGTCCCAAGCGATGCGCAATATAATGCAGCACGATAATGGCAAGAAACATCGCGATCACGAGTTCGAAGAGATGCGTGCCGTCCATATGTGTCCCCAATCCAGCTTGGACCGACATCAAATGACGAGTTTTGGGAAAAAGCAACGGCACTTCCATACCGACTTGAGGCGCTAACGCGCTTGCGGTCTGGAACTTGACCTACCCGGCGGTAGGTCTTTGCGACGGCATGCCGTCGCCCCCATAAGTTGCATATGCGAAATGGCGAAGCCAGGGTGTGTTTTCCAAGCACGCCATTTAAAAGGCAATTCTAATATGAAACGATTGAAATTTCGTCTTTCAAATTCTCTTCGATGAATTTTCGCGTCCCCAAAATCGTCAGATGCCTATTTGTTGGTCAAAATTGGAAAATTAGTTAATGCAATTTTTACTATGTTGCGGCGCACAAGAACTTCATTCACCATTTCAATACTGCGGGAGGAACGGTTTCTCAACAACAGAGGAGTTGATTTCATG (double strand) [crdP]”, the binding result (0.25 and 0.5 mg/mL CrdR) was “binds”.
Consider “ACCCGGTCTATCCCATGAAGACGGACGATGTGCCGATGCGGCCGGGCGGCGAGGTGACGGCCAGTGTGCCGCCCCGGCCAGCCCGCAGCGTGACGGTCGCCGCGCCCGCGCAGCCGGAACCACAGCCGCTGCCGCCCGTTGCGGCTGTCAGTATTCCCTCGCCCACATCGGCGGGTGCGCCATCACTGCCTGCGCGACCTTCGGTGGGAGTCAGGCAGGTCGATGGTAGGCAGGTGAATAGCCATCCGGTGGAAAGCGGCCCGCAGCCATCGCAGGTTCCGCAGGTGTCCATTCCCTCGCCAGCTTGTCTCTCCGGTTCGGGAGCGGCACCGGGATGCAGGTGATCGGCGGAACCAGCGGGAAAGGCAGCGCCGAGGCGCATATCACGAAATTTCCGGGCCGAAATTCCGGACGGGGAAGAGAACGGAAAGTTTCTGGATG (double strand) [celAP]”, for which the binding result (0.25 mg/mL CrdR) is recorded as “no binding”.
For the sequence “AGGAGTTGATTTCATGCTGTTCCGCAATAAGCCTGACGCAAAATATAAAGGCGCATCCGTAAGATTAGCCTCCTATACTGTTCTCGGTGTGGTGGCGACGGTGTTTTCTTCTTCCGTGTTTCCGCCTGTATTCACCTCTCAAACGAGCCGTGCTCTGATCAATGCCCCCATTATTCCCTTGACGACGCCGATCAGCGGCGTTGTGAAAACATTGAACGACAGGGGTGGTGCCACCATCGAGAACGACAAGGTGGACAATACAACGCTGATCGGTCTGAAGGTTCAACTGGCGGCGCTCGACAATGAGATGCGCCAGAAGAACTCGATCGTTTCGGACTATGCCTCGCGGATCGACGACCTGAACAGGGATCTTTCCAGCCAGCAGGCGGCTTTGCTGCTGCGGACCGA (double strand) [crdP13]”, the binding result under setting [1] is “binds more weakly”.
